One assay concerns the target CLPP-TRAP-FLAG (UniProt O88696). Nature of the assay: co-IP; same anti-FLAG immunoprecipitation from whole cell lysates of transfected Clpp-/- MEFs; lysate, flow-through, wash and elution fractions by SDS-PAGE and Western blotting. For orientation: Immunoblotting shows a protein as a band on a membrane.
A further assay concerns the target CLPP-WT-FLAG (UniProt O88696). Described as above.

Sequences of proteins named here, by UniProt entry; tags and fusion partners are left off. A change or cut given only in a name is not applied to a line headed by its entry. A line that says so, or that is headed by a name, gives the form on record, which may keep a tag or linker. Residues count along the entry.
CLPP-WT-FLAG (O88696, residues 53-272): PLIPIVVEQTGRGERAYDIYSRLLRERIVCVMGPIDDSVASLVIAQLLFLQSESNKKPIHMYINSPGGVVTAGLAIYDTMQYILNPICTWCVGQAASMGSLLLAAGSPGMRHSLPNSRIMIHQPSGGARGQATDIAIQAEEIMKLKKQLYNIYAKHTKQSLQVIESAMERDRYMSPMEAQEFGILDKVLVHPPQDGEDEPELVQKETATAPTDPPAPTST
CLPP-TRAP-FLAG (O88696, form named): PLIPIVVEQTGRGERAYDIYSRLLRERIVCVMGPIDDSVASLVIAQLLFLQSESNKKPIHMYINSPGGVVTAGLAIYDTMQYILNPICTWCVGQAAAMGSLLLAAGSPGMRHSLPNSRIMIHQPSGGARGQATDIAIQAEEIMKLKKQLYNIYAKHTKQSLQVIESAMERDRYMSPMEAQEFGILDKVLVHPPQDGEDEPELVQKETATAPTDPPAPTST
UniProt Q9DCC8: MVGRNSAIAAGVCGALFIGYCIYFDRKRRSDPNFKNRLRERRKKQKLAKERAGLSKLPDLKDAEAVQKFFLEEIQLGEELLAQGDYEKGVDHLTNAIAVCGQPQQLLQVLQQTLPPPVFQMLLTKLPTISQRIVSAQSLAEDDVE

Results are given in words; binding and its absence hold for the method and conditions named. In cells and extracts the contact can be indirect.

Take TOMM20 (from UniProt Q9DCC8 1-145): the binding result in the assay with CLPP-TRAP-FLAG and with CLPP-WT-FLAG was “no binding” throughout.

The values are drawn from article PMC8014998.
